Experiment [1] has as its target c-Kit (tyrosine kinase receptor), expressed from pcDNA 3.1-c-Kit (UniProt P05532). Put plainly: co-IP; HEK293 cells transfected with RanBPM-HA and c-Kit (full-length or deletion mutants); lysed in 1X RIPA buffer; IP overnight at 4°C with anti-c-Kit or anti-HA antibody, protein G beads; Western blot; cells stimulated or not with 100 ng/mL SCF for 30', also with Dasatinib.

Sequences of proteins named here, by UniProt entry; tags and fusion partners are left off. Residues count along the entry.
UniProt P05532, residues 25-979: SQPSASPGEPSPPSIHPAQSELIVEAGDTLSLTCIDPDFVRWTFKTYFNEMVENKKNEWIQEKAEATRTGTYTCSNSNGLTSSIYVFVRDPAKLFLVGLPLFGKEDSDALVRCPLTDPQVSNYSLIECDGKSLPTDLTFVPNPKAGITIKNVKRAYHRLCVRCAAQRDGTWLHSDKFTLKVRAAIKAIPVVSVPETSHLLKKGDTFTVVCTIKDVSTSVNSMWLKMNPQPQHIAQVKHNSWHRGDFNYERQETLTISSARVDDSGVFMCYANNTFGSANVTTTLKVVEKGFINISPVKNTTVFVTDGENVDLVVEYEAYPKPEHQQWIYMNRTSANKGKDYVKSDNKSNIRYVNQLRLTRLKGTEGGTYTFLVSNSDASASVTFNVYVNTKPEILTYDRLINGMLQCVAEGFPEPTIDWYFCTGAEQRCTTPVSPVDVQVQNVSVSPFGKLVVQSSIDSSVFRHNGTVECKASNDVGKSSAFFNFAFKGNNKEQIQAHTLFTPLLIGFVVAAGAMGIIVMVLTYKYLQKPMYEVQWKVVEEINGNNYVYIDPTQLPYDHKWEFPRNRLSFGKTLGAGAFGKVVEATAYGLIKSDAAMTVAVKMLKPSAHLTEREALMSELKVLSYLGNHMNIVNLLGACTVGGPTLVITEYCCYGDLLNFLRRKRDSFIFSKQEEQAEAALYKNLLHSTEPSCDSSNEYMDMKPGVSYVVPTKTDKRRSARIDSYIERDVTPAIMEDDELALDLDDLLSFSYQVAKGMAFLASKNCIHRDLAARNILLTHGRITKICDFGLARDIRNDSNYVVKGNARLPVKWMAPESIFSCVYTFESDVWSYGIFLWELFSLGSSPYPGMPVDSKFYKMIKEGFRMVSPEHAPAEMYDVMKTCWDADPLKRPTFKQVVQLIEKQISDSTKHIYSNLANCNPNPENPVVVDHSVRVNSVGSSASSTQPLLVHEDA
UniProt P69566: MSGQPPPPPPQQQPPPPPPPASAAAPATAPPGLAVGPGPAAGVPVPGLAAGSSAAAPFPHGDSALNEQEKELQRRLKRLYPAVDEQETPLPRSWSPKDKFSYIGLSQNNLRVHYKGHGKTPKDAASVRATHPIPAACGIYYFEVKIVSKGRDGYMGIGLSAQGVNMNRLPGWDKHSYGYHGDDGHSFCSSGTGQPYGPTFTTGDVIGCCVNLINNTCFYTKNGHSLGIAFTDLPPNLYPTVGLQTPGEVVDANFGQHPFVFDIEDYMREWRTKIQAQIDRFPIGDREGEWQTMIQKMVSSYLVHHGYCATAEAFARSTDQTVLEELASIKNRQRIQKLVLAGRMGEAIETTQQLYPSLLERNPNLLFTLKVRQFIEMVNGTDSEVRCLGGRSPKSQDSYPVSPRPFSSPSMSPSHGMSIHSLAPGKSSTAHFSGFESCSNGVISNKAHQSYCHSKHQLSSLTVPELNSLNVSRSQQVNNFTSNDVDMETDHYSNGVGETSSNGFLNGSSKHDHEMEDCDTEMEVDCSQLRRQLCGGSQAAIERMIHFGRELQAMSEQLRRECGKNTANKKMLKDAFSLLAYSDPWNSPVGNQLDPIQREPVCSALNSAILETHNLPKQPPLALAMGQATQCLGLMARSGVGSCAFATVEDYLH

In experiment [2] the target is c-Kit, endogenous in mouse testis (mouse (endogenous in testis)) (UniProt P05532). Put plainly: co-IP; testis lysates of 3 month-old wild type mice, endogenous proteins; 1X RIPA buffer; IP overnight at 4°C with two anti-c-Kit antibodies or an anti-RanBPM antibody, protein G beads; Western blot.
The target in experiment [3] is HA-tagged RanBPM (RanBPM-HA), expressed from pcDNA 3.1 (UniProt P69566). Put plainly: co-IP; HEK293 cells transfected with RanBPM-HA and c-Kit (full-length or deletion mutants); lysed in 1X RIPA buffer; IP overnight at 4°C with anti-c-Kit or anti-HA antibody, protein G beads; Western blot; cells stimulated or not with 100 ng/mL SCF for 30', also with Dasatinib. On the technique in general: In western blotting, separated proteins are transferred to a membrane and probed.

Experiment [4] concerns the target RanBPM, endogenous in mouse testis (mouse (endogenous in testis)) (UniProt P69566). Put plainly: co-IP; testis lysates of 3 month-old wild type mice, endogenous proteins; 1X RIPA buffer; IP overnight at 4°C with two anti-c-Kit antibodies or an anti-RanBPM antibody, protein G beads; Western blot.

Results are given in words; binding and its absence hold for the method and conditions named. Binding seen in cells or lysates may run through a third protein. Some results given as binding are weak or reduced against the parent protein; the word gives no strength.

Regarding “HA-tagged RanBPM (RanBPM-HA), expressed from pcDNA 3.1 (from UniProt P69566 1-653)”, the binding entry in experiment [1] is “binds”. Turning to “RanBPM, endogenous in mouse testis (from UniProt P69566 1-653)”, the binding result in experiment [2] is “binds”. As for “c-Kit (tyrosine kinase receptor), expressed from pcDNA 3.1-c-Kit (from UniProt P05532 25-979)”, the binding entry in experiment [3] was “binds”. In the case of “c-Kit, endogenous in mouse testis (from UniProt P05532 25-979) (receptor)”, the binding result in experiment [4] was “binds”.
